Measured values: patent US20220313819A1, “COMBINATION THERAPY FOR THE TREATMENT OF SOLID AND HEMATOLOGICAL CANCERS” (Arch Oncology, Inc., priority 2019, published 2022)
Numbering of substitutions follows the chain as printed. These are yes or no findings as the source states them, for the method shown. Some binding calls cover weakened binding; strength is not graded here.

By UniProt entry, the sequences of proteins in these tests, tags left out. Where a name states a change or a piece, a line headed by the entry shows the natural chain unless it says otherwise.
UniProt Q08722: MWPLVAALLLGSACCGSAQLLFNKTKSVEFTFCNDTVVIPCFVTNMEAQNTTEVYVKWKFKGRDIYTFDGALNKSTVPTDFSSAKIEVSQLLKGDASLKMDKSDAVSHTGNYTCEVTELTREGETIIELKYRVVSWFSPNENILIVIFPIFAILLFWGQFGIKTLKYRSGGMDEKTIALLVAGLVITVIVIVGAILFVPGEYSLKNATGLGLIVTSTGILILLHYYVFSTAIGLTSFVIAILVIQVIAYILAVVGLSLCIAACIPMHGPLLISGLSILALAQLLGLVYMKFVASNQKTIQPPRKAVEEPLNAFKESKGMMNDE

B1: VLX8hum_06 IgG2 (antibody, V domains shown)
VH: QVQLVQSGAEVKKPGASVKVSCKASGYSFTNYYIHWVRQAPGQGLEWMGYIDPLNGDTTYNQKFKGRVTMTRDTSTSTVYMELSSLRSEDTAVYYCARGGKRAMDYWGQGTLVTVSS
VL: DIQMTQSPSSLSASVGDRVTITCRASQSISNYLNWYQQKPGKAPKLLIYYTSRLYSGVPSRFSGSGSGTDFTLTISSLQPEDFATYYCQQGNTLPWTFGQGTKVEIKR
B2: VLX8hum_07 IgG2 (antibody, V domains shown)
VH: B1 VH with A16S, M70I, R72A, T74E, V79A
VL: B1 VL
B3: VLX8hum_08 IgG2 (antibody, V domains shown)
VH: EVQLVQSGAEVKKPGESLKISCKGSGYSFTNYYIHWVRQMPGKGLEWMGYIDPLNGDTTYNQKFKGQVTISADKSISTAYLQWSSLKASDTAMYYCARGGKRAMDYWGQGTLVTVSS
VL: B1 VL
B4: VLX8hum_09 IgG2 (antibody, V domains shown)
VH: B1 VH with A16S, N61A, K65Q, M70I, R72A, T74E, V79A
VL: B1 VL

What follows are binders tested against human CD47 (human) (UniProt Q08722) (assay: flow cytometry, human RBCs).

| binding | Binder |
| --- | --- |
| binds | B1 |
| binds | B2 |
| binds | B3 |
| binds | B4 |

What follows are binders tested against human CD47 (human) (UniProt Q08722) (assay: cell ELISA, OV10 hCD47 cells).

| binding | Binder |
| --- | --- |
| binds | B1 |
| binds | B2 |
| binds | B3 |
| binds | B4 |

Each binder was assayed against human CD47 (human) (UniProt Q08722) (assay: flow cytometry on freshly isolated human RBCs, FITC-labelled donkey anti-human antibody, MFI).

| binding | Binder |
| --- | --- |
| binds | B1 |
| binds | B2 |
| binds | B3 |
| binds | B4 |

These binders were tested against human CD47 (human) (UniProt Q08722) (assay: cell-based ELISA on OV10 cells expressing human CD47 (OV10 hCD47), HRP-labelled secondary antibody, OD 450).

| binding | Binder |
| --- | --- |
| binds | B1 |
| binds | B2 |
| binds | B3 |
| binds | B4 |
